Measurements taken from PMC4479014.
Results are given in words; binding and its absence hold for the method and conditions named. In cells and extracts the contact can be indirect. Some binding calls cover weakened binding; strength is not graded here. Values belong to the molecule of their own block, whether it stands above or below them.

By UniProt entry, the sequences of proteins in these tests, tags left out.
UniProt P56959: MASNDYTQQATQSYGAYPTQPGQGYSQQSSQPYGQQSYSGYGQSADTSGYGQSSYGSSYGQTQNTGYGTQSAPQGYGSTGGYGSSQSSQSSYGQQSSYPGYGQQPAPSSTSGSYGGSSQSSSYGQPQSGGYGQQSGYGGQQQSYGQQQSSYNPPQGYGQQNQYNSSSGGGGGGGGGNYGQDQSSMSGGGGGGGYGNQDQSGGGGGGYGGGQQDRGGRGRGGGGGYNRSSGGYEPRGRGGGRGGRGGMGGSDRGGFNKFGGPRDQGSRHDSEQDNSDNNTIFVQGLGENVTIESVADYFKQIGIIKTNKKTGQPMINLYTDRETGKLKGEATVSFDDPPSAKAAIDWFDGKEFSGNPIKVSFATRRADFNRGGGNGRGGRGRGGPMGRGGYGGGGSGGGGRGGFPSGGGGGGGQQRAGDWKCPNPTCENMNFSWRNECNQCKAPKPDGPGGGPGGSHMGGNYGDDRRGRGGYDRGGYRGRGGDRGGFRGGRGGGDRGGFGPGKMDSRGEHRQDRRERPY
UniProt P29341: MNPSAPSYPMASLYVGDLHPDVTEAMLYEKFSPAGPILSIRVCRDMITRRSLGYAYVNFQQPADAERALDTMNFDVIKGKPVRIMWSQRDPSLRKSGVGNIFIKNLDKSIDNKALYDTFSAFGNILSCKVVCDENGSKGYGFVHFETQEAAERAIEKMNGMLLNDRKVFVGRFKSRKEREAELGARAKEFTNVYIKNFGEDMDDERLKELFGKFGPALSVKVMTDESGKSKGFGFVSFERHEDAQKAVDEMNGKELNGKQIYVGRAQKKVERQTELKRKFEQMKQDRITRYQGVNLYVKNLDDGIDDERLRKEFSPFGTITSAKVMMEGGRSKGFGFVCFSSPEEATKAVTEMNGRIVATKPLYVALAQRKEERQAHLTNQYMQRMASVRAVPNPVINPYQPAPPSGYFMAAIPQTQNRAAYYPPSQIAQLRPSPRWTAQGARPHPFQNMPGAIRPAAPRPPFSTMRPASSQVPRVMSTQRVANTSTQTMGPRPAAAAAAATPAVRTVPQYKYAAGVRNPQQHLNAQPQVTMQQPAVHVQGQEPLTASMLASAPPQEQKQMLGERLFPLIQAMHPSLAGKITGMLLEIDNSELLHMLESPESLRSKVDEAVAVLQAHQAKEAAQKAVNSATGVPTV

Key:
[1] = molecular target: FUS (in neuroblastoma cells) (UniProt P56959); assay: co-IP; IP of endogenous FUS from neuroblastoma cell lysate; western blot (Supplementary Fig. 8)
[2] = molecular target: FUS (mouse (endogenous in mouse brain and mouse primary neurons)) (UniProt P56959); assay: co-IP; co-IP with FUS in the nuclear fraction of cultured hippocampal neurons (Supplementary Fig. 8e)
[3] = molecular target: FUS (mouse (endogenous in mouse brain and mouse primary neurons)) (UniProt P56959); assay: co-IP; co-IP with FUS in the cytoplasmic fraction of cultured hippocampal neurons (Supplementary Fig. 8e)
[4] = molecular target: FUS (mouse (endogenous in mouse brain and mouse primary neurons)) (UniProt P56959); assay: co-IP; IP of endogenous FUS from primary neuron lysate; western blot (Supplementary Fig. 8)
[5] = molecular target: FUS (mouse (endogenous in mouse brain and mouse primary neurons)) (UniProt P56959); assay: co-IP; IP of endogenous FUS from mouse brain lysate, without RNase A (Brain IP buffer with RNase inhibitor: 25 mM HEPES-KOH pH 7.4, 150 mM NaCl, 5 mM MgCl2, 1 mM EDTA, 1% IGEPAL-CA630); Protein G dynabeads, 4 °C; western blot
[6] = molecular target: FUS (mouse (endogenous in mouse brain and mouse primary neurons)) (UniProt P56959); assay: co-IP; IP of endogenous FUS from mouse brain lysate, Brain IP buffer with RNase A throughout the procedure; Protein G dynabeads, 4 °C; western blot
[7] = molecular target: cytoplasmic poly (A)-binding protein PABPC1 (mouse (endogenous in mouse brain and mouse primary neurons)) (UniProt P29341); assay: co-IP; IP of endogenous PABPC1 from lysates of control and FUS knockdown (shRNA lentivirus) primary cortical neurons; western blot

- binding [1]: binds
Molecule: cytoplasmic poly (A)-binding protein PABPC1 (in neuroblastoma cells) (from UniProt P29341 1-636)

- binding [2]: binds
- binding [3]: binds
- binding [4]: binds
- binding [5]: binds
Molecule: cytoplasmic poly (A)-binding protein PABPC1 (from UniProt P29341 1-636)

- binding [6]: binds
- binding [3]: binds
- binding [7]: binds
- binding [4]: binds
- binding [5]: binds
B1: poly (A)-specific ribonuclease PAN2 (protein, UniProt Q8BGF7 1-1200)
chain: MNFEGLDPGLAEFSPAMHSTLDPVLDAHLNPSLLQNVELDPEGVALEALPVQESVHIMEGVYSELHSVVAEVGVPVSVSHFDLHEEMLWVGSHGGHATSFFGPALERYSSFQVNGGDDIRQIQSLENGILFLTKNNLKYMARGGLIIFDYLLDENEDMHSVLLTDNSTLLVGGLQNHVLEIDLNTVQETQKYAVETPGVTIMRQTNRFFFCGHTSGKVSLRDLRSFKVEHEFDAFSGSLSDFDVHGNLLAACGFSSRLTGLACDRFLKVYDLRMMRAITPLQVHVDPAFLRFIPTYTSRLAIISQSGQCQFCEPTGLANPADIFHVNPVGPLLMTFDVSASKQALAFGDSEGCVHLWTDSPEPSFNPYSRETEFALPCLVDSLPPLDWSQDLLPLSLIPVPLTTDALLSDWPAANSAPAPRRAPPVDAEILRTMKKVGFIGYAPNPRTRLRNQIPYRLKESDHEFDNFSQVTESPTGREEEPLHTVSKKYRKVTIKYSKLGLEDFDFKHYNKTLFAGLEPHIPNAYCNCMIQVLYFLEPVRCLIQNHLCQKEFCLACELGFLFHMLDLSRGDPCQGSNFLRAFRTIPEASALGLILADSDEASGKGSLARLIQRWNRFILTQLHQDMQELEVPQAYRGAGGSFCSSGDSIIGQLFSCEMENCSLCRCGSETVRASSTLLFTLSYPEDKTGKNYDFAQVLKRSICLEQNTQAWCDNCEKYQPTIQTRNIRHLPDILVINCEVNSSKEADFWRLQAEVAFKIAVKKYGGEMKSKEFALADRKELRSPEGFLCSSIEELKNVWLPFSIRMKMTKNKGLDVCNWADEHELSSLGAPSQWGPARAEEELGVYVYDLMATVVHILDSRTGGSLVAHIKVGETYHQRKEGVTHQQWYLFNDFLIEPIDKYEAVQFDMNWKVPAILYYVKRNLNSRYNLNIKNPIEASVLLAEASLARKQRKTHTTFIPLMLNEMPQVGDLVGLDAEFVTLNEEEAELRSDGTKSTIKPSQMSVARITCVRGQGPNEGIPFIDDYISTQEQVVDYLTQYSGIKPGDLDAKISSKHLTTLKSTYLKLRFLIDIGVKFVGHGLQKDFRVINLMVPKDQVLDTVYLFHMPRKRMISLRFLAWYFLDLKIQGETHDSIEDARTALQLYRKYLELSKNGTEPESFHKVLKGLYEKGRKMDWKVPEPESQTSPKNAAVFSVLAL

- binding [1]: binds
B2: poly (A)-specific ribonuclease PAN2 (in neuroblastoma cells) (protein, UniProt Q8BGF7 1-1200)
chain: B1 chain

- binding [1]: binds
B3: cleavage and polyadenylation-specific factor CPSF6 (in neuroblastoma cells) (protein, UniProt Q6NVF9 1-551)
chain: MADGVDHIDIYADVGEEFNQEAEYGGHDQIDLYDDVISPSANNGDAPEDRDYMDTLPPTVGDDVGKGAAPNVVYTYTGKRIALYIGNLTWWTTDEDLTEAVHSLGVNDILEIKFFENRANGQSKGFALVGVGSEASSKKLMDLLPKRELHGQSPVVTPCNKQFLSQFEMQSRKTTQSGQMSGEGKAGPPGGGSRAAFPQGGRGRGRFPGAVPGGDRFPGPAGPGGPPPPFPAGQTPPRPPLGPPGPPGPPGPPPPGQVLPPPLAGPPNRGDRPPPPVLFPGQPFGQPPLGPLPPGPPPPVPGYGPPPGPPPPQQGPPPPPGPFPPRPPGPLGPPLTLAPPPHLPGPPPGAPPPAPHVNPAFFPPPTNSGMPTSDSRGPPPTDPYGRPPPYDRGDYGPPGREMDTARTPLSEAEFEEIMNRNRAISSSAISRAVSDASAGDYGSAIETLVTAISLIKQSKVSADDRCKVLISSLQDCLHGIESKSYGSGSRRERSRERDHSRSREKSRRHKSRSRDRHDDYYRERSRERERHRDRDRDRDRERDREREYRHR

- binding [2]: binds
- binding [6]: binds
- binding [3]: binds
- binding [7]: binds
- binding [4]: binds
- binding [5]: binds
B4: cleavage and polyadenylation-specific factor CPSF6 (protein, UniProt Q6NVF9 1-551)
chain: B3 chain
